Experimental data: patent publication US20090253709A1 (NATIONAL DEFENSE MEDICAL CENTER, priority 2008, published 2009)
For some assays here: At least one structure is not confirmed: it was looked up by name or label, or the drawing left a doubt. Some entries share one result that the patent states for a list of compounds.

Key:
telomerase = assay: Telomeric repeat amplification protocol (TRAP); assay type: biochemical; details: compounds at 100, 10 and 1 μM; gel electrophoresis
H1299 = assay: MTT assay in H1299 cells; assay type: cell-based
Method: H1299 is a non-small cell lung cancer cell line with telomerase activity. The cell extract of H1299 cell lines can be used for selecting the telomerase activity inhibitors in vitro and the telomerase activity-inhibited substances in vivo. H1299 cell line was incubated with RPMI 1640 medium supplemented with 10% of fetal bovine serum (FBS). A total of 2×10^3 […] cells were seeded in the 96-well cell culture plate, and incubated with DMEM (GIBCO®)/glucose mixture and Medium 199 (GIBCO®)/10% FBS/1 mM sodium pyruvate (GIBCO®)/4 mM L-glutamine (GIBCO®) mixture at a ratio of 4:1 at 37° C. for 24 hours. […] This crystal can be dissolved in the organic solvent, and has high absorbance at the wavelength of 570 nm. […] The absorbance at 570 nm was determined by the ELISA reader. […] Subsequently, the linear slope of absorbance to the measuring time was calculated, and the variance of absorbance at 405 nm per minute was represented and compared with the SEAP-producing result of drug-untreated H1299 cells. In addition, the influence of the cell-treated drug solution to the cellular proliferation and the drug toxicity to the cells were considered, and the cellular growth was evaluated by the MTT assay. The drug-treated cells were analyzed by the SEAP assay and the data analysis of MTT assay at the same time. […]

hTERT expression = assay: SEAP assay, H1299/PhTERT-driven SEAP system; assay type: cell-based, human; details: average less than 80% represents telomerase inhibition activity
From the text: The condition of the cells for selecting the telomerase inhibitor must be the cancer cells with telomerase activity. H1299 is a non-small cell lung cancer cell line with telomerase activity. The hTERT communication gene linked behind PhTERT which is located at the fifth chromosome of H1299 cell can be expressed; however, this expression is hard to detect. Therefore, the plasmid having the SEAP communication gene linked behind PhTERT was transfected into H1299 cells. Under the identical condition, after PhTERT was activated, the SEAP communication gene linked behind the plasmid was also activated. This gene could be detected by this analytic method while expressing. […]
The cellular medium after the cellular incubation was transferred into the eppondorf tube, and the activity of endogeneous alkaline phosphatase was inactivated at 65° C. for 10 minutes. […] The absorbance of visible light at 405 nm was determined at the appropriate time intervals, and the enzymatic activity of SEAP was represented by the speed of the increasing absorbance at 405 nm.
The selection of telomerase inhibitors of the anthraquinone compounds provided in the present invention was performed by the H1299/PhTERT-driven SEAP system. […] The drug-treated cells were analyzed by the SEAP assay and the data analysis of MTT assay at the same time. […]

| SMILES | telomerase inhibition effect in TRAP assay (telomerase) | cellular survival rate in the MTT assay (H1299) | SEAP (inhibition effect) (hTERT expression) |
| --- | --- | --- | --- |
| CC(C)CNCC(=O)Nc1ccc2c(c1)C(=O)c1cc(NC(=O)CNCC(C)C)ccc1C2=O [Compound 14, 2,7-Bis[2-(isobutylamino)acetamido]anthraquinone] | telomerase inhibition effect |  |  |
| O=C(Cc1ccccc1)Nc1ccc2c(c1)C(=O)c1cc(NC(=O)Cc3ccccc3)ccc1C2=O [Compound 30, 2,7-Bis(phenylacetamido)anthraquinone] |  | more than 80% | less than 80% |
| O=C(CCc1ccccc1)Nc1ccc2c(c1)C(=O)c1cc(NC(=O)CCc3ccccc3)ccc1C2=O [Compound 31, 2,7-Bis(phenylpropionamido)anthraquinone] |  | more than 80% | less than 80% |
